Tested on: LFS fibroblasts
Experiment: Genotoxicity screen, Micronucleus Test (MNT)
Assay type: cell-based, human
Parameters: key: MNT score = number of micronuclei / number of nuclei
Conditions: Cmax concentration (or concentration causing 20% decrease of viability), 120 h, median
Description: To evaluate genotoxicity of compounds, the Micronucleus Test (MNT)[96]^,[97] method was used. […] Next, the cells were visualized using ImageXpress Micro 4 High-Content Imaging System (Molecular Devices, LLC) and 4 images for each well were analyzed with CellProfiler version 4.1.3 (the pipeline described in the supplementary information).
The MNT score for a specific compound was calculated according to a following formula: MNTscore=(numberofmicronuclei/numberofnuclei)
Resulting MNT scores were compared to negative (DMSO) and positive (mitomycin C) control scores using Welch t-test (R version 4.2.2, packages stat, ggplot2). If scores were statistically different from positive control, then the compound was classified as non-genotoxic. If scores were statistically different from negative control, then the compound was classified as genotoxic.

SMILES: C[C@@H]1COCCN1c1cc(-c2ccnn2C)c2ccnc(-c3ccn[nH]3)c2n1 [BAY-1895344]
- MNT_median (micronucleus test score): 1,10

— article PMC12828543, “Preclinical drug screen identifies WEE1 inhibitor and vinca alkaloid as a combination treatment concept for Li-Fraumeni syndrome medulloblastoma” (iScience, 2025)
